Data taken from PubChem BioAssay AID912, deposited by NCATS (2007).

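A cell-based FRET test of anthrax lethal toxin entry, tracked through the 460 nm emission signal; the cell line is not named here. Each compound was tested as a concentration series from about 0.0005 to 40 µM. The number is the fitted AC50 of the 460 nm signal alone; lower values mean a more potent effect. A falling signal goes with compounds filed as inhibitors or cytotoxic, a rising one with activators or fluorescent compounds (inferred from the filed classes).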

Values are in µM. Common to all entries: measured here: 460 nm channel. Part of the compounds only, not a random draw; the main read-out is not listed here. A potency from a partial, single-point or poor curve is only a rough figure. The first word of each remark tells which way the curve ran; it can be opposite to the aim of the assay.

Compound	AC50 (µM)	curve
O=C(COC(=O)COc1ccccc1)Nc1ccccc1OC(F)F	1.259	rising, partial curve
O=C1CCc2c(ccc3ccccc23)O1	0.001995	rising, full curve, poor fit
COc1ccc(CNc2nc(-c3ccccc3CN(C)C)nc3ccccc23)c(OC)c1	19.95	falling, single point
Cc1noc(/C=C/c2ccco2)c1S(=O)(=O)N1CCC(C(=O)N2c3ccccc3CC2C)CC1 (configuration not stated)	7.943	falling, partial curve
Cc1nc2cnc(Nc3ccccc3)nc2n(Cc2cccs2)c1=O	6.31	rising, partial curve, poor fit
N#Cc1cccc(NC(=O)N2CC[C@@]3(CCCNC3)C2)c1	15.85	rising, partial curve
Nc1nc(Sc2ccc([N+](=O)[O-])c3nonc23)c2[nH]cnc2n1	1	rising, single point
N#CCCn1c(=O)c(-c2ccccc2)nc2cnc(OCc3ccccc3)nc21	3.162	falling, partial curve
CN(C)C(=O)c1ccc(-c2ccc3ncnc(NCCN4CCOCC4)c3c2)cc1	3.162	rising, single point
O=C(Nc1cccc2cccnc12)c1cccnc1	0.003981	falling, full curve, poor fit
CCNc1ncc2nc(-c3ccc(OC)cc3)c(=O)n(CCOC)c2n1	5.012	rising, partial curve
CCCC(CCC(=O)NC1CCCCC1)C(=O)O (configuration not stated)	3.162	falling, full curve, poor fit
CCOC(=O)c1ccc(NC(=O)C2CCN(S(=O)(=O)c3ccccc3)CC2)cc1	3.162	falling, partial curve
COc1ccc(-n2c(=O)cnc3cnc(N4CCNCC4)nc32)cc1	12.59	rising, partial curve
CCN(CC)c1ccc(-c2nn3c(-c4ccccc4OC)nnc3s2)cc1	10	falling, partial curve
c1ccc(N=NNc2ccccc2)cc1	31.62	falling, partial curve, poor fit
O=c1c2ccccc2sn1-c1cc(S(=O)(=O)N2CCOCC2)ccc1N1CCOCC1	0.2512	falling, full curve
O=c1c(-c2cccs2)nc2cnc(Nc3ccccc3)nc2n1C[C@H]1CCCO1	3.981	rising, partial curve
CC(NC(=O)c1ccco1)c1ccc2c(c1)OCCO2 (configuration not stated)	10	rising, single point
CN(C)c1ccc(N=Cc2ccco2)cc1	15.85	falling, partial curve
O=C(Nc1cccc2nsnc12)c1ccc(F)cc1	6.31	rising, partial curve
O=C(CSC1=Nc2ccccc2C2=NC(CC(=O)NC3CCCCC3)C(=O)N12)NCc1ccco1 (configuration not stated)	12.59	rising, single point
CCc1ccc(C2C(C#N)=C(N)SC(N)=C2C#N)s1	10	falling, partial curve
Clc1ccc(-n2nnnc2Sc2ncnc3sccc23)cc1	5.012	falling, full curve
CO[C@H]1/C=C/O[C@@]2(C)Oc3c(C)c(O)c4c(O)c(c5c(c4c3C2=O)NC2(CCN(CC(C)C)CC2)N=5)=NC(=O)/C(C)=C\C=C\[C@H](C)[C@H](O)[C@@H](C)[C@@H](O)[C@@H](C)[C@H](OC(C)=O)[C@@H]1C	31.62	rising, single point
COCCCn1c(=N)c(C(=O)NCC2CCCO2)cc2c(=O)n3ccccc3nc21 (configuration not stated)	15.85	rising, single point
CCN1CCN(c2cc(C)c3cc(NC(=O)c4cnccn4)ccc3n2)CC1	19.95	falling, single point
COc1ccc(-c2nc3cnc(N4CCOCC4)nc3n(CCc3ccccc3)c2=O)cc1	1.585	rising, partial curve
CCOc1ccccc1C1C(C(=O)OC)=CN(C)C=C1C(=O)OC	12.59	rising, partial curve
Cc1ccc(N2CC(C(=O)Nc3nnc(C)s3)CC2=O)cc1 (configuration not stated)	1.259	rising, full curve
O=Nc1ccc2oc(=O)ccc2c1	31.62	falling, single point
O=C(c1cccc(C(=O)N2CCN(c3ccccc3)CC2)c1)N1CCN(c2ccccc2)CC1	31.62	falling, single point
Cc1noc(C)c1S(=O)(=O)N1CCN(C(c2ccccc2)c2ccc(Cl)cc2)CC1 (configuration not stated)	3.162	falling, partial curve
Clc1cccc(-c2nnc(-c3ccccc3)o2)c1	12.59	falling, single point
COCCn1c(=O)c(-c2cc(F)cc(F)c2)nc2cnc(N3CCOCC3)nc21	12.59	rising, partial curve
OC(CN1CCNCC1)Cn1c2ccc(Br)cc2c2cc(Br)ccc21 (configuration not stated)	19.95	falling, single point
N=c1c(S(=O)(=O)c2ccc(Cl)cc2)cc2c(=O)n3ccccc3nc2n1CCN1CCOCC1	5.012	rising, partial curve
CCn1c(CNc2cccc(Cl)c2)nnc1SCC(=O)OC1CCCCC1	10	rising, single point
NCCC(=O)O	12.59	falling, single point
Nc1ccc(-c2ccc(N)c(O)c2)cc1O	15.85	falling, partial curve
CCCc1nn(C)c2c1C(c1ccncc1)C(C#N)=C(N)O2 (configuration not stated)	3.162	falling, partial curve
COc1cc2cc(c1Cl)N(C)C(=O)C[C@H](OC(=O)C(C)C)[C@]1(C)O[C@@H]1[C@@H](C)[C@H]1C[C@](O)(NC(=O)O1)[C@@H](OC)/C=C\C=C(\C)C2	0.002512	falling, full curve
CC1CCN(S(=O)(=O)c2ccc3c(c2)oc(=O)n3CC(=O)N2c3ccccc3CC2C)CC1 (configuration not stated)	12.59	falling, partial curve
Cc1ccc2c(c1)-c1c(cnn1CC(=O)Nc1ccccc1N1CCN(C)CC1)CO2	10	falling, partial curve
Nc1nc(-c2c[nH]c3ccccc23)cs1	0.003981	falling, full curve, poor fit
CN1CCN(C2=C(Cl)C(=O)N(c3ccc(Cl)c(Cl)c3)C2=O)CC1	12.59	falling, partial curve
CCOC(=O)c1ccc(NC(=O)c2cccc(S(=O)(=O)N3CCOCC3)c2)cc1	25.12	falling, partial curve
CCNc1ncc2nc(-c3cc(F)cc(F)c3)c(=O)n(C)c2n1	12.59	rising, partial curve
CCOc1cc(-c2noc(CCC(=O)N3CCOCC3)n2)ccc1OC	1.259	falling, single point
O=C(O)c1cc(-c2ccco2)nc2ccc(Br)cc12	31.62	falling, single point
O=C(Nc1c2c(nn1-c1ccc(Cl)cc1)CS(=O)(=O)C2)c1ccc2c(c1)OCO2	10	rising, single point
Nc1nc(NCc2cccs2)nn1-c1ccccc1	5.012	rising, single point
COC(=O)[C@@]1(Cc2ccccc2)[C@H]2c3cc(C(=O)N(C)C)n(Cc4ccccc4)c3C[C@H]2CN1C(=O)c1ccccc1	0.7943	falling, partial curve, poor fit
Cc1cc(C(=O)CSCCCn2c(=O)[nH]c3ccccc32)c(C)n1C	25.12	rising, single point
O=C(O)[C@H]1CCCN(CCC=C(c2ccccc2)c2ccccc2)C1	12.59	falling, single point
Cn1c(C(C#N)/C(=N\S(=O)(=O)c2cccs2)c2ccccc2)nc2ccccc21 (configuration not stated)	25.12	rising, partial curve
O=c1n(Cc2ccccc2)c2cc(Cl)cnc2n1Cc1ccccc1	3.981	falling, full curve, poor fit
O=C1/C(=C/c2cccnc2)SC(=S)N1Cc1ccco1	0.1259	falling, single point